# Results: article PMC7819943, “Rice protein-binding microarrays: a tool to detect cis-acting elements near promoter regions in rice”
# Sequences of proteins named here, by UniProt entry; tags and fusion partners are left off.
# UniProt Q0JBA9, entry or part of it: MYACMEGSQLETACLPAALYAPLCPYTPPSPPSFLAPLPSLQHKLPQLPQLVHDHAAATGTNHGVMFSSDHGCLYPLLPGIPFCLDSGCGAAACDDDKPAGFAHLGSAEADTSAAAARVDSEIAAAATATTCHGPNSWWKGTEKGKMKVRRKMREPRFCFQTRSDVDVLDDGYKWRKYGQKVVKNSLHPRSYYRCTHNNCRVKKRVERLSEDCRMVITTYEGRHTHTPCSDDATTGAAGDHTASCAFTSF
# The other results are listed elsewhere or left out.
# Molecular target: OsWRKY34 (Oryza sativa, UniProt Q0JBA9 1-250)
# Experiment: protein-binding microarray (RPBM); PBS, 2% BSA, 51.3 ng/ul salmon testes DNA, 50 uM zinc acetate, 200 nM TF, 25 C, 1 h; high values mean tight binding
# Details: protein: recombinant; tags: N-terminal polyhistidine and DsRed monomer fusion (pET32a); label: CyDye5-dUTP incorporated in the synthesized complementary strand; 3' TTTTT single-stranded linker to array surface; dsDNA, one strand shown
# How it was run: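 Binding signal is reported as fluorescence intensity per feature (arbitrary units) from an Axon 4000B scanner. Incubation used 200 nM of each Ni–NTA-purified, N-terminally polyhistidine- and DsRed-fused transcription factor from E. coli BL21-CodonPlus on a double-stranded custom Agilent array for 1 h at 25 °C, with 50 µM zinc acetate in the buffer, followed by washing.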
row,Sequence,binding signal
1,ATTTCAGTTAGTACTATTTCTGCAAGCCATCCTACTCTATCGGAGTCACCTAGTGCAG,10100 fluorescence intensity (a.u.)
2,TCCCTTGTGTCACCTATGACTTTCATCTCAATACTCTCTCCGGAGTCACCTAGTGCAG,12300 fluorescence intensity (a.u.)
3,CTTATCCTCTCGTCGCCGCGCGCCAACCCGCCACAAAACCCGGAGTCACCTAGTGCAG,8760 fluorescence intensity (a.u.)
4,TAACCTTTGACAATGTTGGTACTTGGTACAGTTTGTATTCCGGAGTCACCTAGTGCAG,8870 fluorescence intensity (a.u.)
5,AAGTCGATTTGGTACTATACTATAGGAGGGAGGGGTCTAACGGAGTCACCTAGTGCAG,12700 fluorescence intensity (a.u.)
6,ACAAACGTCCACAGACTTCCACAACACGTACACACTCATCCGGAGTCACCTAGTGCAG,11200 fluorescence intensity (a.u.)
7,ATCCACCATACACCTTACCAGTCACCAACTAATCCACCAACGGAGTCACCTAGTGCAG,8660 fluorescence intensity (a.u.)
8,CCTCATTTGCTTCTTCTTCTTCTTCCTCCTCTTTGTTTCACGGAGTCACCTAGTGCAG,9120 fluorescence intensity (a.u.)
9,ACTATTAATATCTGGTCTCACGTATCATAAACACATTACACGGAGTCACCTAGTGCAG,8780 fluorescence intensity (a.u.)
10,GCTGACATAATTGCTTGTTGGGATTCTTGGGAGGAAATGGCGGAGTCACCTAGTGCAG,8330 fluorescence intensity (a.u.)
11,GACGGATGCCCTGGAGGTTTGGGTTGAGATGGGAGTAGAGCGGAGTCACCTAGTGCAG,8310 fluorescence intensity (a.u.)
12,TATGTGGCGTGTTCTTTTCCATCACTTATCTTCATTTCTGCGGAGTCACCTAGTGCAG,12200 fluorescence intensity (a.u.)
13,ATTTCCCTTTTCTTTTTTATTTTTTATGCATTAGCTTTTACGGAGTCACCTAGTGCAG,9600 fluorescence intensity (a.u.)
14,GATATTTTTTCATTCTCATATCTTTGTTACCACACATTTTCGGAGTCACCTAGTGCAG,11900 fluorescence intensity (a.u.)
15,CATCTTTGATCAATTCAGTTACTATTTACTACCTATGATCCGGAGTCACCTAGTGCAG,9870 fluorescence intensity (a.u.)
16,ACTTCTGCCAAGGAGCATACTCTCACGGTTGTTTGCGGGACGGAGTCACCTAGTGCAG,8120 fluorescence intensity (a.u.)
17,GCTGATCTAAATTTATTATTGCTATAGAGTTGTGTTTTTCCGGAGTCACCTAGTGCAG,8020 fluorescence intensity (a.u.)
18,CCCATGCACACGCTTCCTATCAAGATGAAAAGAGGCCTACCGGAGTCACCTAGTGCAG,8240 fluorescence intensity (a.u.)
19,TCCGTCATTAATAAATGTTTACTGTAGCACCACATTATCACGGAGTCACCTAGTGCAG,8350 fluorescence intensity (a.u.)
20,AAGGCTGCGTTCGTTCGTAAGGTTTGGTTGGGATTTTAAGCGGAGTCACCTAGTGCAG,9900 fluorescence intensity (a.u.)
21,GCCCGCTGAAACATGCATCTTCCCTACCTAGCTCGTCTTCCGGAGTCACCTAGTGCAG,8080 fluorescence intensity (a.u.)
22,AAGGAAGATGACCAAGGGGTTATTATTGGGGATGGATTTGCGGAGTCACCTAGTGCAG,8830 fluorescence intensity (a.u.)
23,CTCCTTTCTCAGTAACTGCACCCACCTCCACACCTACACGCGGAGTCACCTAGTGCAG,9790 fluorescence intensity (a.u.)
24,TTATCTCTTTTTTTCTCATCGTGTAGGTCGAATTTGAACTCGGAGTCACCTAGTGCAG,8250 fluorescence intensity (a.u.)
25,CGTGTCTCTGTTTCGTTTTCCTTTCTCGCACCGCGTTTGCCGGAGTCACCTAGTGCAG,8790 fluorescence intensity (a.u.)
26,GATCAAACGTTGGTTAAAAAGTCAACGGCGTCATACATTACGGAGTCACCTAGTGCAG,10700 fluorescence intensity (a.u.)
27,TCTCCGCTCCCGACACACACTCCACTCCACTCCAGTCCACCGGAGTCACCTAGTGCAG,9240 fluorescence intensity (a.u.)

row,Sequence,binding signal
1,TGCTTTAGTAGTTCTGTTACGTGGAAGGTTTGTTTTTTTTCGGAGTCACCTAGTGCAG,10100 fluorescence intensity (a.u.)
2,CATAGTGCCCGGTATTTATTTTCTATTTTTTTTCCAAACTCGGAGTCACCTAGTGCAG,11600 fluorescence intensity (a.u.)
3,CACTTCTCTAATACTATCGGCCCTTATCAGAACTGCTTTACGGAGTCACCTAGTGCAG,8480 fluorescence intensity (a.u.)
4,TTGCCTGGTCGATATGTCCTGCCCGGGCACTGTTGATATACGGAGTCACCTAGTGCAG,10500 fluorescence intensity (a.u.)
5,CTTTCCCACTCTCTCTCACACACCACGTCCCATCCCGTCGCGGAGTCACCTAGTGCAG,8290 fluorescence intensity (a.u.)
6,CCTCTCCTAGGTTAAGTTTTTTTGGGGCGAAGGGAGTATTCGGAGTCACCTAGTGCAG,8120 fluorescence intensity (a.u.)
7,TCCCCGACGAGGTCGGCCAGCGAGCTCTCACCCGAGCGCTCGGAGTCACCTAGTGCAG,8250 fluorescence intensity (a.u.)
8,CTTTCTCTGTTGATCTTCTCGTGGTGGGTGACTGTGTCAACGGAGTCACCTAGTGCAG,10300 fluorescence intensity (a.u.)
9,ATTTACACCCAGCAACGGTCTCTGCCTCGTCGATCGCCTACGGAGTCACCTAGTGCAG,11000 fluorescence intensity (a.u.)
10,TGTCAGTCACTGTCCCCTTCGTGGTCGTCTTCGCCACTTCCGGAGTCACCTAGTGCAG,9210 fluorescence intensity (a.u.)
11,GCTTCAAGCTCAACCGGTCAGTCAATTCCCGCATAAGTTTCGGAGTCACCTAGTGCAG,9850 fluorescence intensity (a.u.)
12,CCCCAGCATCTCACATTTCACATGTCTGAATCAGAGCACCCGGAGTCACCTAGTGCAG,8140 fluorescence intensity (a.u.)
13,GTCTGTTGCTGTGTTGGACAAGTTTTGTCTGAAAATCGCCCGGAGTCACCTAGTGCAG,8110 fluorescence intensity (a.u.)
14,TAGTTTGATTCTCGTGACACATAGGGCGACCTAAGCTTATCGGAGTCACCTAGTGCAG,8300 fluorescence intensity (a.u.)
15,TGTTGTAACCGTTGTTGTTGAAAATCTTTGTGGTTTTTATCGGAGTCACCTAGTGCAG,10600 fluorescence intensity (a.u.)
16,TCCTTAAACTTTTACTTCTGAGTCAAATTAGTCCTTGATACGGAGTCACCTAGTGCAG,8470 fluorescence intensity (a.u.)
17,TATATCATATGCGGGCGTGATCTATTGGGGCGGGGTGTGGCGGAGTCACCTAGTGCAG,20000 fluorescence intensity (a.u.)
18,ACTCCGCAGCCCAATAACCACCATTGTTTTCTCATCTCGACGGAGTCACCTAGTGCAG,9970 fluorescence intensity (a.u.)
19,TTTGACACCGTTGACTTTTTTAAACATGTTTAACTGTTCGCGGAGTCACCTAGTGCAG,33900 fluorescence intensity (a.u.)
20,TCCGTTTCACAATGTAAGTCATTCTAGCATTTCCCACATTCGGAGTCACCTAGTGCAG,9770 fluorescence intensity (a.u.)
21,GACCCTGCCCTACGTTTTCTTGGTCGTTTTGGTCATCTAGCGGAGTCACCTAGTGCAG,9570 fluorescence intensity (a.u.)
22,GTTTTTGTCTAATATATATATATGTGTTATATTTCAATTACGGAGTCACCTAGTGCAG,8120 fluorescence intensity (a.u.)
23,ATGTTTTTTGCCAATATTTTGGTACATCATCCGTGTTTGACGGAGTCACCTAGTGCAG,11100 fluorescence intensity (a.u.)
24,GAGAGAGAGAGAGATTGAGCTGGTTTTACCAGGAAGTTTCCGGAGTCACCTAGTGCAG,8100 fluorescence intensity (a.u.)
25,GGAGGAGGTGGCGGCGGAGGGGTTGGTGGTGGAGGTGGTCCGGAGTCACCTAGTGCAG,20800 fluorescence intensity (a.u.)
26,CCCCAGCTCACCTCCTCCTCACTACCACCACCACCACCACCGGAGTCACCTAGTGCAG,11300 fluorescence intensity (a.u.)
27,TCATGGCCTCTTGTGTGGGTTTCTAGATGACAACGTTGAACGGAGTCACCTAGTGCAG,8060 fluorescence intensity (a.u.)

# 2 entries drawn at random from the list so far:
row,Sequence,binding signal
23,ATGTTTTTTGCCAATATTTTGGTACATCATCCGTGTTTGACGGAGTCACCTAGTGCAG,11100 fluorescence intensity (a.u.)
5,CTTTCCCACTCTCTCTCACACACCACGTCCCATCCCGTCGCGGAGTCACCTAGTGCAG,8290 fluorescence intensity (a.u.)
